Measured values from patent US6316450A, “Compounds” (SmithKline Beecham p.l.c., priority 1997, dated 2001).
Some results were stated once for a whole list of compounds, not compound by compound.

Chains of the proteins cited; added tags and fusions are not shown.
UniProt P50406, whole entry: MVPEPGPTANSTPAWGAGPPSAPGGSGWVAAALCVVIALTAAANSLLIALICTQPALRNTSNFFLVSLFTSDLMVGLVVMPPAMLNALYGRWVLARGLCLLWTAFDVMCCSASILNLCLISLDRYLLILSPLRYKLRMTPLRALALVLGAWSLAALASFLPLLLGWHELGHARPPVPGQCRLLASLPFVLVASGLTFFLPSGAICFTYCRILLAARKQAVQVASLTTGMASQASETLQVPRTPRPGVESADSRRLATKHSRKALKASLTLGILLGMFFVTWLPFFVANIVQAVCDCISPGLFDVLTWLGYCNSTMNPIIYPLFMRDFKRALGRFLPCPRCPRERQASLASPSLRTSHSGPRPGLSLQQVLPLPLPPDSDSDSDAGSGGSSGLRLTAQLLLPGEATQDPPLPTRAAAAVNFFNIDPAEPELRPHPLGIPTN

Target: human cloned 5-HT6 receptors (Homo sapiens, UniProt P50406)
Format: binding
Set-up: selectivity: reference not given here
Details: for pKi: [3H]-LSD, HeLa-5HT6 cell membranes, pH 7.7, 37° C.; for selectivity: selective 5-HT6 receptor antagonist activity

| Compound | pKi | selectivity |
| --- | --- | --- |
| COc1ccc(S(=O)(=O)Nc2cc(Cl)cc(Cl)c2Cl)cc1N1CCNCC1.Cl [Compound 136, N-(2,3,5-Trichlorophenyl)-4-methoxy-3-piperazin-1-ylbenzenesulfonamide hydrochloride] | > 8.5 | > 100 |
| COc1ccc(S(=O)(=O)Nc2ccc(Br)c(Cl)c2)cc1N1CCN(C)CC1.Cl [Compound 59, N-(3-Chloro-4-bromophenyl)-4-methoxy-3-(4-methylpiperazin-1-yl)-benzenesulfonamide hydrochloride] | – | > 100 |
| COc1ccc(S(=O)(=O)Nc2cccc3c2CCCC3)cc1N1CCN(C)CC1.Cl [Compound 38, 4-Methoxy-3-(4-methylpiperazin-1-yl)-N-(5,6,7,8-tetrahydronaphthalene-1-yl)-benzenesulfonamide hydrochloride] | – | > 100 |
| COc1ccc(S(=O)(=O)Nc2cc(Br)cc3c2OCC3)cc1N1CCNCC1.Cl [Compound 137, N-(5-Bromo-2,3-dihydro-benzofuran-7-yl)-4-methoxy-3-piperazin-1-ylbenzenesulfonamide hydrochloride] | – | > 100 |
| COc1ccc(S(=O)(=O)N2CCCc3c(Cl)cc(Cl)cc32)cc1N1CCNCC1.Cl [Compound 128, 5,7-Dichloro-1-(4-methoxy-3-piperazin-1-ylbenzenesulfonyl)-1,2,3,4-tetrahydroquinoline hydrochloride] | – | > 100 |
| COc1ccc(S(=O)(=O)Nc2ccccc2SC)cc1N1CCN(C)CC1.Cl [Compound 37, 4-Methoxy-3-(4-methylpiperazin-1-yl)-N-(2-methylsulfanylphenyl)-benzenesulfonamide hydrochloride] | – | > 100 |
| COc1ccc(S(=O)(=O)N2CCc3ccc(I)cc32)cc1N1CCNCC1.Cl [Compound 143, 6-Iodo-1-(4-methoxy-3-piperazin-1-ylbenzenesulfonyl)-2,3-dihydro-1H-indole hydrochloride] | > 8.5 | > 100 |
| COc1ccc(S(=O)(=O)Nc2cc(Br)cc(Cl)c2Br)cc1N1CCNCC1 [Compound 141, N-(2,5-Dibromo-3-chlorophenyl)-4-methoxy-3-piperazin-1-ylbenzenesulfonamide] | > 8.5 | > 100 |
| COc1ccc(S(=O)(=O)Nc2cc(Br)cc(Br)c2Br)cc1N1CCNCC1 [Compound 142, N-(2,3,5-Tribromophenyl)-4-methoxy-3-piperazin-1-ylbenzenesulfonamide] | > 8.5 | > 100 |
| COc1ccc(S(=O)(=O)Nc2cc(Cl)cc(Cl)c2)cc1N1CCNCC1.Cl [Compound 94, N-(3,5-Dichlorophenyl)-4-methoxy-3-piperazin-1-ylbenzenesulfonamide hydrochloride] | > 8.5 | > 100 |
| CCCCc1ccccc1NS(=O)(=O)c1ccc(OC)c(N2CCNCC2)c1.Cl [Compound 118, N-(2-Butylphenyl)-4-methoxy-3-piperazin-1-ylbenzenesulfonamide hydrochloride] | – | > 100 |
| COc1ccc(S(=O)(=O)Nc2ccccc2C(C)(C)C)cc1N1CCNCC1.Cl [Compound 117, N-(2-tert-Butylphenyl)-4-methoxy-3-piperazin-1-ylbenzenesulfonamide hydrochloride] | – | > 100 |
| COc1ccc(S(=O)(=O)Nc2cccc(C)c2)cc1N1CCN(C)CC1.Cl [Compound 57, 4-Methoxy-N-(3-methylphenyl)-3-(4-methylpiperazin-1-yl)benzenesulfonamide hydrochloride] | – | > 100 |
| COc1ccc(S(=O)(=O)Nc2cc(Cl)cc(Cl)c2Br)cc1N1CCNCC1 [Compound 138, N-(2-Bromo-3,5-dichlorophenyl)-4-methoxy-3-piperazin-1-ylbenzenesulfonamide] | > 8.5 | > 100 |
| COc1ccc(S(=O)(=O)Nc2cc(Cl)cc(Br)c2Cl)cc1N1CCNCC1.Cl [Compound 135, N-(3-Bromo-2,5-dichlorophenyl)-4-methoxy-3-piperazin-1-ylbenzenesulfonamide hydrochloride] | > 8.5 | > 100 |
| COc1ccc(S(=O)(=O)Nc2cc(Br)cc(Cl)c2Cl)cc1N1CCNCC1 [Compound 139, N-(3-Bromo-5,6-dichlorophenyl)-4-methoxy-3-piperazin-1-ylbenzenesulfonamide] | > 8.5 | > 100 |
| COc1ccc(S(=O)(=O)N2CCc3cc(SC)c(I)cc32)cc1N1CCNCC1.Cl [Compound 121, 6-Iodo-1-(4-methoxy-3-piperazin-1-ylbenzenesulfonyl)-5-methylsulfanyl-2,3-dihydro-1H-indole hydrochloride] | – | > 100 |
| COc1ccc(S(=O)(=O)Nc2ccc(C)c(I)c2)cc1N1CCNCC1.Cl [Compound 127, N-(3-Iodo-4-methylphenyl)-4-methoxy-3-piperazin-1-yl-benzenesulfonamide hydrochloride] | > 8.5 | > 100 |
| CCc1cccc(NS(=O)(=O)c2ccc(OC)c(N3CCN(C)CC3)c2)c1.Cl [Compound 58, N-(3-Ethylphenyl)-4-methoxy-3-(4-methylpiperazin-1-yl)benzenesulfonamide hydrochloride] | – | > 100 |
| COc1ccc(S(=O)(=O)Nc2cc(Br)cc(Br)c2)cc1N1CCNCC1 [Compound 134, N-(3,5-Dibromophenyl)-4-methoxy-3-piperazin-1-ylbenzenesulfonamide] | > 8.5 | > 100 |
| COc1ccc(S(=O)(=O)N2CCc3cc(C)c(C(F)(F)F)cc32)cc1N1CCNCC1.Cl [Compound 124, 1-(4-Methoxy-3-piperazin-1-ylbenzenesulfonyl)-5-methyl-6-trifluoromethyl-2,3-dihydro-1H-indole hydrochloride] | – | > 100 |
| CCc1ccccc1NS(=O)(=O)c1ccc(OC)c(N2CCN(C)CC2)c1.Cl [Compound 39, N-(2-Ethylphenyl)-4-methoxy-3-(4-methylpiperazin-1-yl)benzenesulfonamide hydrochloride] | – | > 100 |
| COc1ccc(S(=O)(=O)Nc2cccc(I)c2)cc1N1CCNCC1.Cl [Compound 93, N-(3-Iodophenyl)-4-methoxy-3-piperazin-1-ylbenzenesulfonamide hydrochloride] | > 8.5 | > 100 |
